Measured values taken from the supplement of paper PMC12823440, “Inhibitors supercharge kinase turnover through native proteolytic circuits” (Nature, 2025).
The other results are listed elsewhere or left out. The calls rarely recur for the same compound in another form.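 In K562 cells expressing nanoluciferase-fused kinases, luminescence was recorded at 4 h intervals between 2 and 18 h, normalized as percent of control with DMSO at 100% and a positive control at 0%. A significant (2 sigma) signal drop marks a time point as decreased. The authors' rule for a hit is not shown and takes in more than the number of time points.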

Amino acid sequences for entries named in this document (tags omitted). A change or cut given only in a name is not applied to a line headed by its entry.
UniProt Q9UBF8: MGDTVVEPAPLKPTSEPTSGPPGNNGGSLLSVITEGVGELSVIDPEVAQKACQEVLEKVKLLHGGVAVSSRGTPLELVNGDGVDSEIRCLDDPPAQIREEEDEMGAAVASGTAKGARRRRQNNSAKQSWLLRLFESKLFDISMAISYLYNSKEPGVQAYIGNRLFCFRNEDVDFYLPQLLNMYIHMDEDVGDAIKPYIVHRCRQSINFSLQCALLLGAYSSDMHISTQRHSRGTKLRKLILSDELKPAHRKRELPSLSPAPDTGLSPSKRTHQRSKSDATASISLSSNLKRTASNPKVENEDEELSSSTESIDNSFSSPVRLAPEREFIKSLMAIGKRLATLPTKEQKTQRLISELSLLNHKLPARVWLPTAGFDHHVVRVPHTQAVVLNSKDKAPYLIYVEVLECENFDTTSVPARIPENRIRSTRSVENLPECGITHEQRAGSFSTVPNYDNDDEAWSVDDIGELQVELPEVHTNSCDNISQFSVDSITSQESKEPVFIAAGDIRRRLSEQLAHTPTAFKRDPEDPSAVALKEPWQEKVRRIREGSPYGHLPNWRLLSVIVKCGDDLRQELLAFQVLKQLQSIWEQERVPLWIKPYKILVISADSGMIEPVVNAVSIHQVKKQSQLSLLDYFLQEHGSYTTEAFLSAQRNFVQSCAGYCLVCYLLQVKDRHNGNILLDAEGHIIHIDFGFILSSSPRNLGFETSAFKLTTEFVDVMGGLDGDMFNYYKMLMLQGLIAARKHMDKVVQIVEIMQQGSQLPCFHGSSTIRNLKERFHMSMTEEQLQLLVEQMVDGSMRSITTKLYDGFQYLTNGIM
UniProt P53350, whole entry: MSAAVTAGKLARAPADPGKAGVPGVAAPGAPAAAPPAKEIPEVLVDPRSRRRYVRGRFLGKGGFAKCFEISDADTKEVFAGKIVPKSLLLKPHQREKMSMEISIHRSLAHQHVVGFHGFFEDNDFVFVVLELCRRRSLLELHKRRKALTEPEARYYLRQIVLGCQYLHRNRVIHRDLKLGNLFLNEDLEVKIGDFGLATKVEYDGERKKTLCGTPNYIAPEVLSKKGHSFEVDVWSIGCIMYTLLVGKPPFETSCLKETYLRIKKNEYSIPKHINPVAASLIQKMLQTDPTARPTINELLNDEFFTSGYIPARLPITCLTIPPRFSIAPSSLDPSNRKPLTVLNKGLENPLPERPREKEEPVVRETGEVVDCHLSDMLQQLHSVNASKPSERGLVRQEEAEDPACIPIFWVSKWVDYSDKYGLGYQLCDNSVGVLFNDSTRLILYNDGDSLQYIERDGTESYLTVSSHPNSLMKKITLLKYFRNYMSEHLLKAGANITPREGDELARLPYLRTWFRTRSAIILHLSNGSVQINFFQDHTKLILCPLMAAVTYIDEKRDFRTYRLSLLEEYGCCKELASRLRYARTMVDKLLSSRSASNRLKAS
UniProt Q13131: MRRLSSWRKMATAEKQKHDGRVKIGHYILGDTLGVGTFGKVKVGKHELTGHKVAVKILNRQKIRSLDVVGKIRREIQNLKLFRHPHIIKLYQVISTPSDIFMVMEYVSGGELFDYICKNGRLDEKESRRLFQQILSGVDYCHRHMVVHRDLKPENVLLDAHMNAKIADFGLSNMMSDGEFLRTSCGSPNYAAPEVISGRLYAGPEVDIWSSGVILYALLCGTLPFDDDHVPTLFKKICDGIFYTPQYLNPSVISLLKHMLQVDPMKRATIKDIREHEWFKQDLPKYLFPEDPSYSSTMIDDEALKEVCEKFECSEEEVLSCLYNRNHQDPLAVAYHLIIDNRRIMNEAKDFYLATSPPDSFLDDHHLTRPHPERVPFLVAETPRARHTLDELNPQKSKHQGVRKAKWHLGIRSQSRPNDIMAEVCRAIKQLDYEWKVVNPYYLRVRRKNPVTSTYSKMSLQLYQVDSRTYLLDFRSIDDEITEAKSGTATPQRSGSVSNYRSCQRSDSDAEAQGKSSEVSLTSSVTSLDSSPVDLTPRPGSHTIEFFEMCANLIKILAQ
UniProt Q9BRS2: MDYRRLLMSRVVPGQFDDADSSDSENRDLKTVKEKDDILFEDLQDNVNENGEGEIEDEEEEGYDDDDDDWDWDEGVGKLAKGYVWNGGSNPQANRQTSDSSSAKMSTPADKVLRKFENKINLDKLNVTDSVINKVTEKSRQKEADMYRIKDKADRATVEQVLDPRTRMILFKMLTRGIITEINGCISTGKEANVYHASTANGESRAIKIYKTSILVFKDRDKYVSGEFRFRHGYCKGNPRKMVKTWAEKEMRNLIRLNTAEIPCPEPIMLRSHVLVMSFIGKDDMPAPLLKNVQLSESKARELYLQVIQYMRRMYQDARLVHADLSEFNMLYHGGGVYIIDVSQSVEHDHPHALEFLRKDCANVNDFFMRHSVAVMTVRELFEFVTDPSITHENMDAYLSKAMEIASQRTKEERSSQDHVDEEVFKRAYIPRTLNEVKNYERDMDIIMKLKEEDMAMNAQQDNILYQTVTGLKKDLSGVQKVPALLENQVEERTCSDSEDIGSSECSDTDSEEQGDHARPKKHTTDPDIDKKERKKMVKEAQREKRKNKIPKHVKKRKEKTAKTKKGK
UniProt Q13546: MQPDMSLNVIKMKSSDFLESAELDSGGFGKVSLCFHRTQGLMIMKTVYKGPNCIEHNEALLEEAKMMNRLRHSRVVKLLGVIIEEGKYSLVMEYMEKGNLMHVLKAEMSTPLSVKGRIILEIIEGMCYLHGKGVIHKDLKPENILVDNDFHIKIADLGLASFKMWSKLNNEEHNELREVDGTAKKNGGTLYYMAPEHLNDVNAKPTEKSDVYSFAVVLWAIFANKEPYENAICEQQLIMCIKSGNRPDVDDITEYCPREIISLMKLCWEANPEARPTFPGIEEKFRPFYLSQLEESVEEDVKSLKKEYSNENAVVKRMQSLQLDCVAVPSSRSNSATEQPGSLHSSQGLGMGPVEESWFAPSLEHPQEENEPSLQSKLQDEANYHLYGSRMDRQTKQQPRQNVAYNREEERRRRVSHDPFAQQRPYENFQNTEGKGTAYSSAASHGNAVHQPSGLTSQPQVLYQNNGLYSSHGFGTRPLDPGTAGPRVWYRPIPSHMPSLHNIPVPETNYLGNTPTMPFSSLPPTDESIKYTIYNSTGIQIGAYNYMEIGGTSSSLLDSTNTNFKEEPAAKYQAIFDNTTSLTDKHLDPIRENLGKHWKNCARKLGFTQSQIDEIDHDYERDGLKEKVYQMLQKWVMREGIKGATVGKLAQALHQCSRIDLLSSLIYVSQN
UniProt Q01974, whole entry: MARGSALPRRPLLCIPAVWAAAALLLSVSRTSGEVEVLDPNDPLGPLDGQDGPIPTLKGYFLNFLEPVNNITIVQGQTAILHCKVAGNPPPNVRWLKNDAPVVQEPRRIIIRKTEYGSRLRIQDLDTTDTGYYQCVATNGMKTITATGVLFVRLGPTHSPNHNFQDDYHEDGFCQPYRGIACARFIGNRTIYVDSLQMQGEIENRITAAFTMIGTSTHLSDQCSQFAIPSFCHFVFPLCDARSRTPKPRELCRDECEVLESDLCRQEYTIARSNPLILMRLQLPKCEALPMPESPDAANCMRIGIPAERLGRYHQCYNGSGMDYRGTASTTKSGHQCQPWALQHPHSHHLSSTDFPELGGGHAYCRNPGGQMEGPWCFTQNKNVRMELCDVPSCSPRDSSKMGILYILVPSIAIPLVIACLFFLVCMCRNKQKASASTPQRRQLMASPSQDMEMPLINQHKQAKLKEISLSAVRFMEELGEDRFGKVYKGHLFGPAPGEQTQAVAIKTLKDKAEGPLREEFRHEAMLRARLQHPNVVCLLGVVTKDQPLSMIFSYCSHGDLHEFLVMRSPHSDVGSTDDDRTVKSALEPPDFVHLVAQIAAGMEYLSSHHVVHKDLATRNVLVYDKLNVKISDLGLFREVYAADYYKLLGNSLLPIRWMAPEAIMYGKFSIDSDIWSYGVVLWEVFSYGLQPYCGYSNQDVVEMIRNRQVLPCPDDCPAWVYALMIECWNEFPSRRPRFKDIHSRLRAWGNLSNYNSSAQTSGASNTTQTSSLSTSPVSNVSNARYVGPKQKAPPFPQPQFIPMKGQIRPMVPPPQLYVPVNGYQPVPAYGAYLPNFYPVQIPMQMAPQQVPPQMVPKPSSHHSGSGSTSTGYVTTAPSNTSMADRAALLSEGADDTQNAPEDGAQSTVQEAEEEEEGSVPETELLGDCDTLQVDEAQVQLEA
UniProt Q15418, whole entry: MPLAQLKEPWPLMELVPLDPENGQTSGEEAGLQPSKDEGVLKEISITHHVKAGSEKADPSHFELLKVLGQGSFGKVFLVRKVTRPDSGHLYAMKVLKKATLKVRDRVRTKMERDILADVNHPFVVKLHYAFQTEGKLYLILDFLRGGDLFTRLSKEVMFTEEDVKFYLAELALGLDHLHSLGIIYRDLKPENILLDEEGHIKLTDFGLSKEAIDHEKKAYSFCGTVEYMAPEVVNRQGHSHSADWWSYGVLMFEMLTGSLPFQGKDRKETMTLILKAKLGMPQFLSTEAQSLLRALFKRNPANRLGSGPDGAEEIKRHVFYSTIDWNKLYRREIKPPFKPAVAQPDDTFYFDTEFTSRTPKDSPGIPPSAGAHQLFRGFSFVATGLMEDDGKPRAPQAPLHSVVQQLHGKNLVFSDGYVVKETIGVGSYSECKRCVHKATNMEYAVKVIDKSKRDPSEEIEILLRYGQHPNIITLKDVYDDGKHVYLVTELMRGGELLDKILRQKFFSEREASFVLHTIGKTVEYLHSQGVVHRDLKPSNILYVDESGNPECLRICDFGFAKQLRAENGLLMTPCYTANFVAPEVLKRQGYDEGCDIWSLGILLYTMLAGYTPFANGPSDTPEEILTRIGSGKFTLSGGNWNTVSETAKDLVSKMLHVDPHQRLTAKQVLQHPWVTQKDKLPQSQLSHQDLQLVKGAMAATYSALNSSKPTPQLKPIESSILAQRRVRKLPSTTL
UniProt Q9NYA1, whole entry: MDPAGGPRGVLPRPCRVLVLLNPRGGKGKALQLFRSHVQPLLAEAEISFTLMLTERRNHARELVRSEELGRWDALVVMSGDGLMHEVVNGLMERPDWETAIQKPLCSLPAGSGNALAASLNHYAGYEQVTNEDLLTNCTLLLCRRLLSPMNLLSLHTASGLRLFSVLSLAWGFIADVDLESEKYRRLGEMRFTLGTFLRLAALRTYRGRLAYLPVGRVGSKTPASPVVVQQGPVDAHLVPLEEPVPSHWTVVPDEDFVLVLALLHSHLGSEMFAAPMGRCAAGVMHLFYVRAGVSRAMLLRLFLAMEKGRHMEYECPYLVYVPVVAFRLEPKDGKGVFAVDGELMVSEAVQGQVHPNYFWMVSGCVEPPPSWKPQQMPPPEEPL
UniProt Q9Y6E0: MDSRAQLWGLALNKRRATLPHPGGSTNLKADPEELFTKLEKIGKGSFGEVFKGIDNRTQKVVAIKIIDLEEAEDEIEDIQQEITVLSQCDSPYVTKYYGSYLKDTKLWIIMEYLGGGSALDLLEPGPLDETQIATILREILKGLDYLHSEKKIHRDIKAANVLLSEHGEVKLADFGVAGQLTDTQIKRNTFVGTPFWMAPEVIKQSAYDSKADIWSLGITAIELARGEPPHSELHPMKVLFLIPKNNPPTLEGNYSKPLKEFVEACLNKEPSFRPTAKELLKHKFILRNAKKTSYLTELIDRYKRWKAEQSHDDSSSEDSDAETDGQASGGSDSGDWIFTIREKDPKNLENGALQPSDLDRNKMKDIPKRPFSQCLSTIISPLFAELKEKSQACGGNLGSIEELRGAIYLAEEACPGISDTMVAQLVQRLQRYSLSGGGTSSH

Experiments:
Assay in all cases: kinase-Nluc reporter destabilization hit call (1 = scored as downregulated) (binary); higher = compound decreases kinase abundance
Settings in all cases: K562; 2-18 h
PDPK1 = PDPK1 (UniProt O15530)
PIK4CA = PIK4CA (UniProt P42356)
PIK4CB = PIK4CB (UniProt Q9UBF8)
PLK1 = PLK1 (UniProt P53350)
PRKAA1 = PRKAA1 (UniProt Q13131)
PRKCA = PRKCA (UniProt P17252)
PTK2 = PTK2 (UniProt Q05397)
PTK2B = PTK2B (UniProt Q14289)
RAF1 = RAF1 (UniProt P04049)
[1] = molecular target: RAF1_S257L (clone: RAF1_mut) (UniProt P04049)
RET = RET (UniProt P07949)
[2] = molecular target: RET_M918T (clone: RET_mut) (UniProt P07949)
RIOK1 = RIOK1 (UniProt Q9BRS2)
RIPK1 = RIPK1 (UniProt Q13546)
RIPK2 = RIPK2 (UniProt O43353)
ROR2 = ROR2 (UniProt Q01974)
RPS6KA1 = RPS6KA1 (UniProt Q15418)
SPHK1 = SPHK1 (UniProt Q9NYA1)
SRC = SRC (UniProt P12931)
STK24 = STK24 (UniProt Q9Y6E0)

Measured: kinase-Nluc reporter destabilization hit call

COc1ccc(-c2cc(=O)c3c(OC)cc(OC)c(OC)c3o2)cc1 [6-Demethoxytangeretin] (10 µM)
inactive: PDPK1 = 0 | PIK4CA 0 | PIK4CB 0 | PLK1 = 0 | PRKAA1 = 0 | PRKCA 0 | PTK2 = 0 | PTK2B 0 | RAF1 = 0 | [1] 0 | RET 0 | [2] 0 | RIOK1 = 0 | RIPK1 = 0 | RIPK2 = 0 | ROR2 = 0 | RPS6KA1 = 0 | SPHK1 = 0 | SRC 0 | STK24 = 0

Cc1nc[nH]c1CN1CCN(C(=O)N[C@@H](CC(C)C)C(=O)O)[C@@H](Cc2ccccc2)C1=O (10 µM)
inactive: PDPK1 = 0 | PIK4CA 0 | PIK4CB 0 | PLK1 = 0 | PRKAA1 = 0 | PRKCA 0 | PTK2 = 0 | PTK2B 0 | RAF1 = 0 | [1] 0 | RET 0 | [2] 0 | RIOK1 = 0 | RIPK1 = 0 | RIPK2 = 0 | ROR2 = 0 | RPS6KA1 = 0 | SPHK1 = 0 | SRC 0 | STK24 = 0

COCCOc1ccc2c(c1)ncn2-c1ccc2cccc(N3CCC(N)CC3)c2n1 (10 µM)
active: [1] 1
inactive: PDPK1 = 0 | PIK4CA 0 | PIK4CB 0 | PLK1 = 0 | PRKAA1 = 0 | PRKCA 0 | PTK2 = 0 | PTK2B 0 | RAF1 = 0 | RET 0 | [2] 0 | RIOK1 = 0 | RIPK1 = 0 | RIPK2 = 0 | ROR2 = 0 | RPS6KA1 = 0 | SPHK1 = 0 | SRC 0 | STK24 = 0

CN1CCN(c2ccc(Nc3ncc4cc(C#N)c(=O)n(C5CCCC5)c4n3)cc2)CC1 (10 µM)
inactive: PDPK1 = 0 | PIK4CA 0 | PIK4CB 0 | PLK1 = 0 | PRKAA1 = 0 | PRKCA 0 | PTK2 = 0 | PTK2B 0 | RAF1 = 0 | [1] 0 | RET 0 | [2] 0 | RIOK1 = 0 | RIPK1 = 0 | RIPK2 = 0 | ROR2 = 0 | RPS6KA1 = 0 | SPHK1 = 0 | SRC 0 | STK24 = 0

Cc1cnc(NC(=O)c2cc(Oc3cnc(C(=O)N(C)C)nc3)c3cc(C)oc3c2)cn1 (10 µM)
inactive: PDPK1 = 0 | PIK4CA 0 | PIK4CB 0 | PLK1 = 0 | PRKAA1 = 0 | PRKCA 0 | PTK2 = 0 | PTK2B 0 | RAF1 = 0 | [1] 0 | RET 0 | [2] 0 | RIOK1 = 0 | RIPK1 = 0 | RIPK2 = 0 | ROR2 = 0 | RPS6KA1 = 0 | SPHK1 = 0 | SRC 0 | STK24 = 0

c1nc2c(NC3CCCCC3)nc(Nc3ccc(N4CCOCC4)cc3)nc2[nH]1 [Reversine] (10 µM)
inactive: PDPK1 = 0 | PIK4CA 0 | PIK4CB 0 | PLK1 = 0 | PRKAA1 = 0 | PRKCA 0 | PTK2 = 0 | PTK2B 0 | RAF1 = 0 | [1] 0 | RET 0 | [2] 0 | RIOK1 = 0 | RIPK1 = 0 | RIPK2 = 0 | ROR2 = 0 | RPS6KA1 = 0 | SPHK1 = 0 | SRC 0 | STK24 = 0

O=c1c2c([nH]n1-c1nc3ccccc3s1)CCCC2 (10 µM)
inactive: PDPK1 = 0 | PIK4CA 0 | PIK4CB 0 | PLK1 = 0 | PRKAA1 = 0 | PRKCA 0 | PTK2 = 0 | PTK2B 0 | RAF1 = 0 | [1] 0 | RET 0 | [2] 0 | RIOK1 = 0 | RIPK1 = 0 | RIPK2 = 0 | ROR2 = 0 | RPS6KA1 = 0 | SPHK1 = 0 | SRC 0 | STK24 = 0

Nc1[nH]nc2nc(-c3ccc(NS(=O)(=O)c4cc(Cl)ccc4Cl)cc3)cnc12 (10 µM)
inactive: PDPK1 = 0 | PIK4CA 0 | PIK4CB 0 | PLK1 = 0 | PRKAA1 = 0 | PRKCA 0 | PTK2 = 0 | PTK2B 0 | RAF1 = 0 | [1] 0 | RET 0 | [2] 0 | RIOK1 = 0 | RIPK1 = 0 | RIPK2 = 0 | ROR2 = 0 | RPS6KA1 = 0 | SPHK1 = 0 | SRC 0 | STK24 = 0

Clc1ccc(C(c2ccc(Cl)cc2)[n+]2ccn(CC(OCc3ccc(Cl)cc3Cl)c3ccc(Cl)cc3Cl)c2)cc1 (stereo not given) [Calmidazolium chloride] (2.5 µM)
inactive: PDPK1 = 0 | PIK4CA 0 | PIK4CB 0 | PLK1 = 0 | PRKAA1 = 0 | PRKCA 0 | PTK2 = 0 | PTK2B 0 | RAF1 = 0 | [1] 0 | RET 0 | [2] 0 | RIOK1 = 0 | RIPK1 = 0 | RIPK2 = 0 | ROR2 = 0 | RPS6KA1 = 0 | SPHK1 = 0 | SRC 0 | STK24 = 0

Reprinted at random: 2 records from the list, in no set order.
COCCOc1ccc2c(c1)ncn2-c1ccc2cccc(N3CCC(N)CC3)c2n1 (10 µM)
active: [1] 1
inactive: PDPK1 = 0 | PIK4CA 0 | PIK4CB 0 | PLK1 = 0 | PRKAA1 = 0 | PRKCA 0 | PTK2 = 0 | PTK2B 0 | RAF1 = 0 | RET 0 | [2] 0 | RIOK1 = 0 | RIPK1 = 0 | RIPK2 = 0 | ROR2 = 0 | RPS6KA1 = 0 | SPHK1 = 0 | SRC 0 | STK24 = 0

c1nc2c(NC3CCCCC3)nc(Nc3ccc(N4CCOCC4)cc3)nc2[nH]1 [Reversine] (10 µM)
inactive: PDPK1 = 0 | PIK4CA 0 | PIK4CB 0 | PLK1 = 0 | PRKAA1 = 0 | PRKCA 0 | PTK2 = 0 | PTK2B 0 | RAF1 = 0 | [1] 0 | RET 0 | [2] 0 | RIOK1 = 0 | RIPK1 = 0 | RIPK2 = 0 | ROR2 = 0 | RPS6KA1 = 0 | SPHK1 = 0 | SRC 0 | STK24 = 0

More structures follow.

C#Cc1cccc(Nc2ncnc3cc(OC)c(NC(=O)N4C[C@H]5CCN(C)[C@H]5C4)cc23)c1 [Theliatinib] (10 µM)
inactive: PDPK1 = 0 | PIK4CA 0 | PIK4CB 0 | PLK1 = 0 | PRKAA1 = 0 | PRKCA 0 | PTK2 = 0 | PTK2B 0 | RAF1 = 0 | [1] 0 | RET 0 | [2] 0 | RIOK1 = 0 | RIPK1 = 0 | RIPK2 = 0 | ROR2 = 0 | RPS6KA1 = 0 | SPHK1 = 0 | SRC 0 | STK24 = 0

O=C(ON=C1c2ccccc2-c2nc3ccccc3nc21)c1ccco1 (2.5 µM)
inactive: PDPK1 = 0 | PIK4CA 0 | PIK4CB 0 | PLK1 = 0 | PRKAA1 = 0 | PRKCA 0 | PTK2 = 0 | PTK2B 0 | RAF1 = 0 | [1] 0 | RET 0 | [2] 0 | RIOK1 = 0 | RIPK1 = 0 | RIPK2 = 0 | ROR2 = 0 | RPS6KA1 = 0 | SPHK1 = 0 | SRC 0 | STK24 = 0

COc1c(O)cc2oc(-c3ccc(O)cc3)cc(=O)c2c1O [Hispidulin] (10 µM)
inactive: PDPK1 = 0 | PIK4CA 0 | PIK4CB 0 | PLK1 = 0 | PRKAA1 = 0 | PRKCA 0 | PTK2 = 0 | PTK2B 0 | RAF1 = 0 | [1] 0 | RET 0 | [2] 0 | RIOK1 = 0 | RIPK1 = 0 | RIPK2 = 0 | ROR2 = 0 | RPS6KA1 = 0 | SPHK1 = 0 | SRC 0 | STK24 = 0

C[C@@H](Nc1ncnc2[nH]c(-c3ccc(O)cc3)cc12)c1ccccc1 (2.5 µM)
inactive: PDPK1 = 0 | PIK4CA 0 | PIK4CB 0 | PLK1 = 0 | PRKAA1 = 0 | PRKCA 0 | PTK2 = 0 | PTK2B 0 | RAF1 = 0 | [1] 0 | RET 0 | [2] 0 | RIOK1 = 0 | RIPK1 = 0 | RIPK2 = 0 | ROR2 = 0 | RPS6KA1 = 0 | SPHK1 = 0 | SRC 0 | STK24 = 0

CCN1CCN(Cc2cnc(Nc3cc(-c4cc(F)c5nc(C)n(C(C)C)c5c4)c(F)cn3)nc2)CC1 (10 µM)
inactive: PDPK1 = 0 | PIK4CA 0 | PIK4CB 0 | PLK1 = 0 | PRKAA1 = 0 | PRKCA 0 | PTK2 = 0 | PTK2B 0 | RAF1 = 0 | [1] 0 | RET 0 | [2] 0 | RIOK1 = 0 | RIPK1 = 0 | RIPK2 = 0 | ROR2 = 0 | RPS6KA1 = 0 | SPHK1 = 0 | SRC 0 | STK24 = 0

CNC(=O)CNc1cnc2ccc(-c3ccc(OC)c(OC)c3)cc2n1 (10 µM)
inactive: PDPK1 = 0 | PIK4CA 0 | PIK4CB 0 | PLK1 = 0 | PRKAA1 = 0 | PRKCA 0 | PTK2 = 0 | PTK2B 0 | RAF1 = 0 | [1] 0 | RET 0 | [2] 0 | RIOK1 = 0 | RIPK1 = 0 | RIPK2 = 0 | ROR2 = 0 | RPS6KA1 = 0 | SPHK1 = 0 | SRC 0 | STK24 = 0

O=C(Nc1cc(Cl)cc2c1[nH]c1cnccc12)c1cccnc1 (10 µM)
inactive: PDPK1 = 0 | PIK4CA 0 | PIK4CB 0 | PLK1 = 0 | PRKAA1 = 0 | PRKCA 0 | PTK2 = 0 | PTK2B 0 | RAF1 = 0 | [1] 0 | RET 0 | [2] 0 | RIOK1 = 0 | RIPK1 = 0 | RIPK2 = 0 | ROR2 = 0 | RPS6KA1 = 0 | SPHK1 = 0 | SRC 0 | STK24 = 0

COc1cc2c(cc1Nc1ncc(C(N)=O)c(Nc3c(F)cccc3C(F)(F)F)n1)CN(C)CC2 (2.5 µM)
inactive: PDPK1 = 0 | PIK4CA 0 | PIK4CB 0 | PLK1 = 0 | PRKAA1 = 0 | PRKCA 0 | PTK2 = 0 | PTK2B 0 | RAF1 = 0 | [1] 0 | RET 0 | [2] 0 | RIOK1 = 0 | RIPK1 = 0 | RIPK2 = 0 | ROR2 = 0 | RPS6KA1 = 0 | SPHK1 = 0 | SRC 0 | STK24 = 0

O=Nc1c(-c2c(O)[nH]c3cc(Br)ccc23)[nH]c2ccccc12 [GSK 3 Inhibitor IX] (2.5 µM)
inactive: PDPK1 = 0 | PIK4CA 0 | PIK4CB 0 | PLK1 = 0 | PRKAA1 = 0 | PRKCA 0 | PTK2 = 0 | PTK2B 0 | RAF1 = 0 | [1] 0 | RET 0 | [2] 0 | RIOK1 = 0 | RIPK1 = 0 | RIPK2 = 0 | ROR2 = 0 | RPS6KA1 = 0 | SPHK1 = 0 | SRC 0 | STK24 = 0
